Measured values: article PMC4237329, “Early Chordate Origin of the Vertebrate Integrin αI Domains” (PLoS ONE, 2014)
Results are given in words; binding and its absence hold for the method and conditions named. Binding can be weak; no strength is given. Tags and fused reporters may be left off the sequences shown.

By UniProt entry, the sequences of proteins in these tests, tags left out. Where a name states a change or a piece, a line headed by the entry shows the natural chain unless it says otherwise.
UniProt P02459: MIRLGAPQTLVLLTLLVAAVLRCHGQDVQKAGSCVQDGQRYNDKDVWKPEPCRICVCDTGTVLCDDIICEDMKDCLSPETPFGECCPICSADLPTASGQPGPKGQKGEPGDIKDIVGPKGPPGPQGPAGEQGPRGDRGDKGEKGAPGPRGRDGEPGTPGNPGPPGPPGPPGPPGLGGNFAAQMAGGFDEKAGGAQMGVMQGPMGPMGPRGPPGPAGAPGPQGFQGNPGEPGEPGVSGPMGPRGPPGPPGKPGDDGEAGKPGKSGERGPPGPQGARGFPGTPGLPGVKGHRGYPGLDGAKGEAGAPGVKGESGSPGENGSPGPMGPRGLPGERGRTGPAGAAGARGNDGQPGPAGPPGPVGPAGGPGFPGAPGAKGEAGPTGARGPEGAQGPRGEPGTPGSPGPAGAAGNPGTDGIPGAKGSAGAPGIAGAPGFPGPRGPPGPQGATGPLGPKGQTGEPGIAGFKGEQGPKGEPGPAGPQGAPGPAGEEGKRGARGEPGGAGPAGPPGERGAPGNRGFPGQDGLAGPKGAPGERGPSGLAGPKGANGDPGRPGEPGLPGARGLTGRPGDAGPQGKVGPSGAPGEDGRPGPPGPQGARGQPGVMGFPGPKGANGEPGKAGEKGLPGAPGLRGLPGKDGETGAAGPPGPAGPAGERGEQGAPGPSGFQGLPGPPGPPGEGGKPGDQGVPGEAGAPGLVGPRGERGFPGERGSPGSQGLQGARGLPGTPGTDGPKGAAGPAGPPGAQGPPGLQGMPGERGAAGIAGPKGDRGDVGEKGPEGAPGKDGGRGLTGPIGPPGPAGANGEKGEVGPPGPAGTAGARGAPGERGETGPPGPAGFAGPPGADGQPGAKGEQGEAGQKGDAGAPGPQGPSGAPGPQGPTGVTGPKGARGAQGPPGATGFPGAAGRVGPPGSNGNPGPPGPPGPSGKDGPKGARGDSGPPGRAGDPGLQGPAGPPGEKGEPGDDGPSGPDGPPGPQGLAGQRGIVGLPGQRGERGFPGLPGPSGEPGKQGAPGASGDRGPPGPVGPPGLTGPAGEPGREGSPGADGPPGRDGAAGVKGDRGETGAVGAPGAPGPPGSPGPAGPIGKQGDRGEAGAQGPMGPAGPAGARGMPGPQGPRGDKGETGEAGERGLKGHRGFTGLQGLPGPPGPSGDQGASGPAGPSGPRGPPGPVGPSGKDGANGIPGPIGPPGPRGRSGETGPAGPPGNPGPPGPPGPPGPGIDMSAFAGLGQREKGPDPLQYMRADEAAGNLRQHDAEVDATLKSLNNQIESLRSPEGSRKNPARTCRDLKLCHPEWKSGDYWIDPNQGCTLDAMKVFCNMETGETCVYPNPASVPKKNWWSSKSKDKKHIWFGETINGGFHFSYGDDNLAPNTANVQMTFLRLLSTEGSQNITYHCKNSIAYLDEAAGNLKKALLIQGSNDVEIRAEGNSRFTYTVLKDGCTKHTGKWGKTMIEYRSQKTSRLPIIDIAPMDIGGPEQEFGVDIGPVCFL

Target: bovine collagen II (bovine) (UniProt P02459)
Assay: solid-phase binding assay (Europium-labelled anti-GST antibody, time-resolved fluorescence); 96-well plates coated with collagen (16.4 µg/ml) or GFOGER-peptide (5 µg/ml) overnight at 4°C, blocked with BSA-Diluent II; GST-αI domain at a fixed 400 nM added for one hour at RT in PBS + 2 mM …; some samples on rat collagen I with 10 mM EDTA in the binding step; both purified

binding: binds
B1: Pma_f2 αI domain (sea lamprey integrin α subunit fragment Pma_f2), GST-fusion protein (domain or fragment, sea lamprey (Petromyzon marinus))
chain: ADFQVTSTLTPAAQRCGLFMDIVIVLDGSNSIYPWQEVQNFVINIVKKFHIGPGQSRNGGGSTRFGVRTIHWHLGIARWACEGVQDVENIYSRPFVRTASALCQSLQVVRSEAFSPLFGAREGASKVMIVVTDGESHDSEDLTEAIAACERDNITRYAIAVLGYYKRKNIDPSNFISELKAISSEPEEKHFINVADEAALNDIVGTLGERIFSLEGTV
notes: also called Pma αI domains; source: E. coli BL21 tuner (gene synthesized, in pGEX-2T), recombinant GST-fusion protein, "sufficiently pure"
